Patent publication US20180148487A1
These are yes or no findings as the source states them, for the method shown. Some results given as binding are weak or reduced against the parent protein; the word gives no strength.

Amino acid sequences for entries named in this document (tags omitted). A change or cut given only in a name is not applied to a line headed by its entry.
UniProt O00206: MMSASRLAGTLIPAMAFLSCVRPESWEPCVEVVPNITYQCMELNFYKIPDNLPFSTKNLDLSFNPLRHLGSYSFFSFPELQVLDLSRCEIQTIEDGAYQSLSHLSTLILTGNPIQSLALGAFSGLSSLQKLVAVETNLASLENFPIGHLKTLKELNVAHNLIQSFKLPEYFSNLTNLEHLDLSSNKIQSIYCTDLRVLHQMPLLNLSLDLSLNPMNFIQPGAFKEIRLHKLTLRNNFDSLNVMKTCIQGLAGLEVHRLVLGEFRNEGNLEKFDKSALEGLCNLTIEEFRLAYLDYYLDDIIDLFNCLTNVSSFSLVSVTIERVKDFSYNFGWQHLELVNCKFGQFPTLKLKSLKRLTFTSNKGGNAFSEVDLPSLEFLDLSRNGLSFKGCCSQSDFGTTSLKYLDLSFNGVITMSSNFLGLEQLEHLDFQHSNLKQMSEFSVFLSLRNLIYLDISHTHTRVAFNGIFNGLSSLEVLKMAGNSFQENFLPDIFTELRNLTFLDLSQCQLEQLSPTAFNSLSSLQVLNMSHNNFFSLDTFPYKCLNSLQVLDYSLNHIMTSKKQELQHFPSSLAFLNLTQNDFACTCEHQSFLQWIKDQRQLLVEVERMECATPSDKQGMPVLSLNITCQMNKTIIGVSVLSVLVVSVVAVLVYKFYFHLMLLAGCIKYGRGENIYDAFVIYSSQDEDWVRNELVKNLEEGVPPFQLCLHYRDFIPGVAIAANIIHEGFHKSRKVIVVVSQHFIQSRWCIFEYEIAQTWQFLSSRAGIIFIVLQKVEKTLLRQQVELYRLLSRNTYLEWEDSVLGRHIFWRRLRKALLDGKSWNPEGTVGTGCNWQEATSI
UniProt Q9Y6Y9: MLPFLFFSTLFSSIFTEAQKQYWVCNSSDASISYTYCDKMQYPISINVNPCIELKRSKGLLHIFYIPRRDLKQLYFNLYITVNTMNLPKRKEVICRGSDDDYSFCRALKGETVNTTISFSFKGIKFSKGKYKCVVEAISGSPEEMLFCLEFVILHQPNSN

How the values were obtained:
[1] = target: T1, recombinant human TLR4/MD2 composite (human) (UniProt O00206+Q9Y6Y9); test: phage ELISA of selected clones on plates coated with TLR4/MD2 (anti-M13-HRP, A450)
[2] = target: T1, recombinant human TLR4/MD2 composite (human); test: phage display biopanning and phage ELISA on TLR4/MD2

Binder	binding [1]	binding [2]
ASANKNLLFKIRYSTARGGS [TAP1]	binds	binds
AMALDCFRWGWRMWCSSG [TAP2]	binds	binds
AMAYEIRCWWRWCYTSSG [TAP3]	binds	binds
